Test [1] has as its target T1, 17β-Hydroxysteroid dehydrogenase type 4 (HSD17B4), endogenous (human (endogenous in LNCaP)) (UniProt P51659).
T1 sequence: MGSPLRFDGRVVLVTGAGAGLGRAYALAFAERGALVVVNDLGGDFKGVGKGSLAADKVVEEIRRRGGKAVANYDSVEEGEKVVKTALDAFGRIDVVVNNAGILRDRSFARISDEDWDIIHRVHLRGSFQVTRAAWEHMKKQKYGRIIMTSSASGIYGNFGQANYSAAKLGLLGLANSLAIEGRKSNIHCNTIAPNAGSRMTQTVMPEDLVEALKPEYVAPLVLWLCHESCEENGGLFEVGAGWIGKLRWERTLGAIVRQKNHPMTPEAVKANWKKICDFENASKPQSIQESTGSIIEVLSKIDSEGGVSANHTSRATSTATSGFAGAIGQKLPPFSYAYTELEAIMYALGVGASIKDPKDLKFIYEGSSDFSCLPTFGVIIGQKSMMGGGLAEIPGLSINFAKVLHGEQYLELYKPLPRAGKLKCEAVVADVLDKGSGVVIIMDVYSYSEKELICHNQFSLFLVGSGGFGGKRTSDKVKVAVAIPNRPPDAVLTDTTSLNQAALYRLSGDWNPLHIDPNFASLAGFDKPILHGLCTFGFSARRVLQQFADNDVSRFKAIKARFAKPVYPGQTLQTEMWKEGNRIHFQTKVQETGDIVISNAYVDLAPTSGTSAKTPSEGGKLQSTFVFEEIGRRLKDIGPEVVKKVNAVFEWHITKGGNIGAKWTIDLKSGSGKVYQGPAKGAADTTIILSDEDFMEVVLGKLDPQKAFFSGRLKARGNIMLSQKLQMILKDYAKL
The experiment in a line: co-IP; endogenous proteins from LNCaP lysate, detected by western blotting; cells cultured with or without DHT for 24 h (Figures 5C, 6F) or untreated (Figure 7D); lysis in 0.3% Nonidet P40, 150 mM NaCl, 50 mM Tris-HCl pH 7.5; which protein was precipitated is not told. For orientation: A western blot detects proteins with antibodies after separation by electrophoresis.

By UniProt entry, the sequences of proteins in these tests, tags left out.
UniProt Q92793: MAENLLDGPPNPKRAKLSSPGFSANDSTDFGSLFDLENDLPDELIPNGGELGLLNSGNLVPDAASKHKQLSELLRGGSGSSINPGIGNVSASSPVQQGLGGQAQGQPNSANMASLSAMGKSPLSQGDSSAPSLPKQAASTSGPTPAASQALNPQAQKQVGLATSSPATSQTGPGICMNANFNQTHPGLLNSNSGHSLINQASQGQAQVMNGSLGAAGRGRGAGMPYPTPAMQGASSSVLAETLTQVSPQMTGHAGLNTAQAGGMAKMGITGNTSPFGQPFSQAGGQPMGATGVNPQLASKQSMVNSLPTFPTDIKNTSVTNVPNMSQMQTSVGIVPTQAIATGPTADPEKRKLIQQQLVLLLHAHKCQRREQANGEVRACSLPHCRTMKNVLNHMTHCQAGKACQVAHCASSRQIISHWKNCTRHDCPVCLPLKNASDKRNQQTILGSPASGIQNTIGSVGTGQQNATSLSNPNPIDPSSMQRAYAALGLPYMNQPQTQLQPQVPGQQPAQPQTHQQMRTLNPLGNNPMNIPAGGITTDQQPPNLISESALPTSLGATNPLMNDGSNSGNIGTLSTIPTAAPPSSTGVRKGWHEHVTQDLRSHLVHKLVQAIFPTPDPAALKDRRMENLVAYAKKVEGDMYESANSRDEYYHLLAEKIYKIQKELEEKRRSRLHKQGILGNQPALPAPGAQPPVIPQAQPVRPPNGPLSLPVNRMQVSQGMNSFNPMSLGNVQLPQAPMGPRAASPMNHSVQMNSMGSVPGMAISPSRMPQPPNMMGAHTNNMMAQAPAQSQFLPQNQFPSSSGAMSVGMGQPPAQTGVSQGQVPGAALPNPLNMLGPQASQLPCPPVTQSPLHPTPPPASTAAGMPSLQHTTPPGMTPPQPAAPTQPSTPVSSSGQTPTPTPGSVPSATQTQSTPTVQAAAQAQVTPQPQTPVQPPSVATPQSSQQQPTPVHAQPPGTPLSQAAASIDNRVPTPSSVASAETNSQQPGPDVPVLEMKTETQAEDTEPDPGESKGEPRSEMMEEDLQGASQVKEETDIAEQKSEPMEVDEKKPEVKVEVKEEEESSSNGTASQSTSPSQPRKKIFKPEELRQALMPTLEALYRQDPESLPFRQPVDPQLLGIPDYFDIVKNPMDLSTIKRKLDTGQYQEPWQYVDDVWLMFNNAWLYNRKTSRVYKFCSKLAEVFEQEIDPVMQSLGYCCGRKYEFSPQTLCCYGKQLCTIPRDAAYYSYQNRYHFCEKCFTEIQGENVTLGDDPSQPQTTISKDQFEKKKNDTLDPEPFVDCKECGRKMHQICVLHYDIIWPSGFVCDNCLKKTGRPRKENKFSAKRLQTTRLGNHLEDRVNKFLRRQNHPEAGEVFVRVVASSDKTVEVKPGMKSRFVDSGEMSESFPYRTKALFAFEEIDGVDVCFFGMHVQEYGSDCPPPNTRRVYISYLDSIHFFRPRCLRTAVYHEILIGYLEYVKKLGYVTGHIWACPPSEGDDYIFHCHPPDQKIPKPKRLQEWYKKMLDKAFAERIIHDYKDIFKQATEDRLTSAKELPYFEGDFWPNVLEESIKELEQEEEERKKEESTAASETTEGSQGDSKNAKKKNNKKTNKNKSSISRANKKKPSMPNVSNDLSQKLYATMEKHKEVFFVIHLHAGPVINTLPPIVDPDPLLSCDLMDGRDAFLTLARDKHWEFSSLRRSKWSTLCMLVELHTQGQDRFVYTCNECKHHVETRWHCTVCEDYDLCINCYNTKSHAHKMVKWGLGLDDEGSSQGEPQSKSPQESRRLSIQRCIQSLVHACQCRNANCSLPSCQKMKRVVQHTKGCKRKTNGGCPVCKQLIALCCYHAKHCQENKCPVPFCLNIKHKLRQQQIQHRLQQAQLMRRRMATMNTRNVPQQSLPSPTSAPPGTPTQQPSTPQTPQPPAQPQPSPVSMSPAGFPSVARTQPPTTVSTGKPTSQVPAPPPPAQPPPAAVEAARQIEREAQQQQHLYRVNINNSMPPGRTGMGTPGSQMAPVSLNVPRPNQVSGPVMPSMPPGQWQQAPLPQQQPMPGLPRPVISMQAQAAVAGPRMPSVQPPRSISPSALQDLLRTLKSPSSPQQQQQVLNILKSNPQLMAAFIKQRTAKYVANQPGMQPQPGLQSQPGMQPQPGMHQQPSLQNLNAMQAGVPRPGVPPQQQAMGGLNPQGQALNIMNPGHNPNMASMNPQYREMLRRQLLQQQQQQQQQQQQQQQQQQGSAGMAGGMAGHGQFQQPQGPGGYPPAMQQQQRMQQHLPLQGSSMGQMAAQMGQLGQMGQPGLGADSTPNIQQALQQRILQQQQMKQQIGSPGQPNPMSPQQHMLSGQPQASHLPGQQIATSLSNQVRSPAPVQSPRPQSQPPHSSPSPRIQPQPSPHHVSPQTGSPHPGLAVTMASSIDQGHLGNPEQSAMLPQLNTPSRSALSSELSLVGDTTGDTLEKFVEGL
UniProt P11142: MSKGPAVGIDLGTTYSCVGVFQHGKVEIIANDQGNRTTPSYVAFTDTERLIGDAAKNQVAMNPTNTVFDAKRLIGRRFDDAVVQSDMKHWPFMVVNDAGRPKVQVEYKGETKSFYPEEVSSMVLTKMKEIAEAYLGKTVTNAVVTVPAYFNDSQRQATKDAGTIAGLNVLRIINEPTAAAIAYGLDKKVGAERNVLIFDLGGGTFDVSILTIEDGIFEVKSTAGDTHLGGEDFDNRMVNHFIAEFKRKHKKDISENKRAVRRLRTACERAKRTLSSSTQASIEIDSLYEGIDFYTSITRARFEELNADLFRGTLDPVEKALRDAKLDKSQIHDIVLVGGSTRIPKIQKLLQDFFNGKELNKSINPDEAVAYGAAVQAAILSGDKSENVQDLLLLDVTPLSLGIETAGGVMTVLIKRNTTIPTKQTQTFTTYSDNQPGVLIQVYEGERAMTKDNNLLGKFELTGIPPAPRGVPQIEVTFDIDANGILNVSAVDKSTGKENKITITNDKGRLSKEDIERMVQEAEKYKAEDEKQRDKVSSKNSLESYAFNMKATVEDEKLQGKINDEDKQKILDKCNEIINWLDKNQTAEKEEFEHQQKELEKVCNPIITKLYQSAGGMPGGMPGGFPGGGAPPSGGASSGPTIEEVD

Test [2] has as its target T2, HSD17B4, wild type, expressed construct of the mutant panel (Figure 5E) (human) (UniProt P51659).
T2 sequence: T1 sequence
Nature of the test: co-IP; IP-western of HSD17B4 wild type and alanine mutants, blotted for HSC70; cell line not stated.

No constants are given. Whether binding was seen depends on the method and setting. In cells and extracts the contact can be indirect. Some entries that bind do so weakly or less than the wild type.

“CREBBP, endogenous (from UniProt Q92793 1-2442) (enzyme)”: in test [1], the binding entry is recorded as “binds”.
As to “Heat Shock Protein Family A Member 8 (HSC70) (from UniProt P11142 1-646)”, the binding entry in test [1] and in test [2] was “binds” in each case.
